Results from the supplement of paper PMC3334620.
Whole data set: some 33,000 sequences, median “E-score (-0.5 to 0.5)” near -0.015, cut for the highest 2% near 0.3. Some of the results follow.

Molecular target: T1, Abf1 (UniProt P14164)
T1 sequence: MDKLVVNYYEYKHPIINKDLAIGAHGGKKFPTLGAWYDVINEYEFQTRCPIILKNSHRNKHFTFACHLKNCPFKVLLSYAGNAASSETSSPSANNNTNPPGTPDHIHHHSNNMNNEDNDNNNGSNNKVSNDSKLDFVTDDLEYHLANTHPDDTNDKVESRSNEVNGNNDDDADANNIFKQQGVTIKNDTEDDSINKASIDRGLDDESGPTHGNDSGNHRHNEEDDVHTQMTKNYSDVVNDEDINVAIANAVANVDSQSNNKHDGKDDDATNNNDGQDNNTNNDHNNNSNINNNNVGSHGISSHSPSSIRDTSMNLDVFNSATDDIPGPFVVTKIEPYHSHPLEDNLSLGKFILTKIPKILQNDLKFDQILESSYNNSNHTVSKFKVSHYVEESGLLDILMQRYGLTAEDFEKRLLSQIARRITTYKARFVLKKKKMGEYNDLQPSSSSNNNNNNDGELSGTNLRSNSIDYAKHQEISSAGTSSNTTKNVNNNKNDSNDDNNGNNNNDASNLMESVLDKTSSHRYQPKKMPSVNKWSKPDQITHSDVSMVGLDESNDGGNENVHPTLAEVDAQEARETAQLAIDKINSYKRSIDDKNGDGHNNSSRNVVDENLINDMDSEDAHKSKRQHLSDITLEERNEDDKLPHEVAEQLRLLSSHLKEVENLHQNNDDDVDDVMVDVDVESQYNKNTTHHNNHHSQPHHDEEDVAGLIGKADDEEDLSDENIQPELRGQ
Assay: PBM E-score (8-mer binding enrichment) (E-score (-0.5 to 0.5)); higher = stronger / more preferred TF binding
Conditions: protein concentration: 200 nM; construct: GST-full length
Summary of the method: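 Yeast transcription factors carrying a GST tag, as full-length proteins or DNA-binding domains, were produced by PURExpress in vitro transcription/translation. About 100-200 nM protein was applied to universal all-10-mer Agilent arrays, double-stranded by primer extension on fresh or once-stripped slides. Bound protein was detected with fluorescent anti-GST, and scans were normalised with masliner. The Universal PBM Analysis Suite gave each ungapped eight-base word, pooled with its reverse complement, an E-score, a modified Wilcoxon-Mann-Whitney statistic.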

Sequence	PBM E-score
CCTTAACA	0.00924
AGGGGATA	-0.071
CCGCAATC	0.00423
AGAGTCTC	-0.145
CGTAAACG	0.00931
CTTGGGAC	0.163
ATAGCACA	-0.057
ACGGTTAC	0.11
AGGTGTAT	-0.208
ATGATATA	0.403
CTACTCCC	-0.12
CGGGTTGC	-0.142
GACCGCCC	-0.159
ACCGTTTC	0.0554
CTACCGTA	0.117
AAGTCTGT	0.00842
CCGACAGC	-0.246
AAATAAAC	0.085
ATACGAAG	0.328
CAAATATG	-0.0682
CTAACCAG	-0.1
AAGACGAA	0.223
ATCTCTCC	0.0195
TAATGCAA	-0.00797
CCCTTTAG	-0.269

Sequence	PBM E-score
CTACTAGA	-0.0227
CCGTAGGA	0.262
CAGCGCTG	-0.0266
AAACAGGA	0.0421
GCCAACGC	0.0526
GATCAATC	0.0842
ACGACATA	0.295
AGCAGCGA	0.167
AACGTTGC	-0.0203
CTTAATCA	0.127
GTAAGGGA	0.115
AAACGGGT	0.0669
GCAAACCC	-0.203
CGCGAGTC	-0.0453
CGAGTGTA	0.153
ACACGGAT	-0.0137
CCTATAGG	-0.201
CACCGCCC	-0.0835
CTTGCTGA	-0.0447
ACAATACT	0.202
AAGCTTCA	-0.118
CTAGGACA	0.00967
AAGACTCT	-0.133
GGTTGTCA	0.117
AGGACCTC	-0.165

Sequence	PBM E-score
TGCATAAA	0.0266
CCGACTTC	-0.25
GCATTTGA	0.103
ACTTCGTC	0.227
AGTTCCGA	0.0146
ACGGGGTA	0.04
CGCGGCAC	-0.00367
CACGAAGC	0.201
ACTTGCCT	-0.0155
GTTTCCCA	0.0184
GATGCGAC	0.108
AAAATTCC	-0.0445
ATGACAAC	0.343
AAGCGACT	0.041
GCTCAACA	-0.104
ACAGTCGT	0.13
GAACAGCA	-0.0269
GTGGCGAA	-0.0215
GAAACGTA	0.0177
CCGAGGAC	-0.0671
GGAGAGCC	-0.293
AACGTGTC	0.0853
GAGGGAAC	-0.046
GAGGTAAA	-0.107
ACGGTATA	0.204

Sequence	PBM E-score
CCGTAACG	-0.0416
TCAGGAGA	0.0741
GGAACAAC	-0.0393
ATCCTGCC	-0.101
ACGTTGGG	0.0255
GCTTACAC	0.0186
CCGCTCAC	-0.195
ACTTAAGA	0.132
CCGTTTGA	0.0879
CCGTCTGA	0.186
ACAATAGC	0.0218
GTGCGGCA	0.232
CTGGCGGA	-0.122
CGATGACA	0.319
GAAACATA	0.0166
AGGATGTC	0.126
ATCAGCTA	-0.0482
AGTTCAGA	-0.0713
AGGACCTG	-0.203
CGCTCACA	-0.0723
CTAGCCCA	-0.227
CCATGAAG	0.0123
ATAGACGA	0.225
CTACAACA	-0.0578
ACTATTGC	-0.00113

Sequence	PBM E-score
AAGTGAAA	-0.0619
GCGCACTA	0.0586
GCGCGCCC	-0.116
GACCAGAC	0.0801
CGGTCCCC	-0.243
ACGCGGAG	-0.162
GGGCCGTA	0.244
AGGAGATA	-0.0389
CGTCTTAG	-0.0248
CGCTGTAG	0.126
AACTCAGG	-0.00462
ATAGCAGG	0.0166
AGGATTTG	-0.053
TGACGTAA	0.13
CGCCTTGC	0.00414
ATAATGAA	0.0482
CAGGCACC	-0.178
ATTTAGGA	0.0948
AAGAGTCC	-0.0869
GCCTCTGA	-0.316
ACCCAGAA	-0.0336
AGGACTAC	-0.265
AAATTAGG	0.142
ATCCCTGC	-0.0438
AATAATTC	0.113

A few values from above:
Under PBM E-score, CCGTAACG is entered as -0.0416
Under PBM E-score, CTTAATCA is entered as 0.127
Under PBM E-score, AAGTGAAA is entered as -0.0619

Continued:

Sequence	PBM E-score
ACATGCCA	-0.0572
CCGCTCTC	-0.168
CTCGTCAG	0.182
GCTAGGCA	-0.252
ACACCTTC	-0.079
AGCCGCGG	-0.131
AGGACGGC	0.0783
ATTCGACA	-0.0448
GGGGGAGA	-0.297
CATAAAAC	0.0891
CCAGCTGA	0.0075
AACCCTTA	0.139
TACAGCAA	-0.0284
AACTGAAC	-0.0135
CGGGTTCC	-0.0803
AGGAAGGA	-0.244
CATGGCGA	0.00987
ATGTTGGG	-0.15
CTACCACA	-0.173
ATATGACA	0.2
CCGCCTGC	0.0226
CCACTCAA	0.0392
TCACAACA	0.115
GTCGCCAA	0.0446
GAATTTAA	0.0623

Some of the entries so far, in CSV form.
Sequence,PBM E-score
GAGGGAAC,-0.046
GAGGTAAA,-0.107
ACGGTATA,0.204
CCGTAACG,-0.0416
TCAGGAGA,0.0741

Following part

Sequence	PBM E-score
TAGAAACA	-0.0416
TCGAGTCA	0.0523
GATATTGA	0.201
CACCAACA	-0.0828
AAGAACTA	0.134
AGTGGCTC	-0.209
CATCTGTA	0.0105
AGGTACAG	-0.104
CGTCTGGC	0.0925
CTACGCAG	-0.144
AGGCTCCG	0.134
CCGGCAGC	-0.0671
ATACACAA	-0.0352
AAACGGGG	0.0143
GCTGTAAA	-0.0536
ATCGCAGC	-0.0387
ACGAAGGG	0.136
TACTTTCA	0.132
CCGTCACA	0.195
CAATCGTC	0.102
CTTACATA	0.104
ACGTAGGC	0.043
